Measured values as given in patent US20240287501A1.
No constants are given. Whether binding was seen depends on the method and setting. Binding seen in cells or lysates may run through a third protein. Some entries that bind do so weakly or less than the wild type. Tags and fused reporters may be left off the sequences shown.

Assays:
[1] = target: T1, FBA1 (native, from EBY100 lysate) (Saccharomyces cerevisiae) (UniProt P14540); assay: co-immunoprecipitation, Nb coupled to NHS-agarose beads, EBY100 yeast lysate (native target), SDS-PAGE
T1 sequence (looked up): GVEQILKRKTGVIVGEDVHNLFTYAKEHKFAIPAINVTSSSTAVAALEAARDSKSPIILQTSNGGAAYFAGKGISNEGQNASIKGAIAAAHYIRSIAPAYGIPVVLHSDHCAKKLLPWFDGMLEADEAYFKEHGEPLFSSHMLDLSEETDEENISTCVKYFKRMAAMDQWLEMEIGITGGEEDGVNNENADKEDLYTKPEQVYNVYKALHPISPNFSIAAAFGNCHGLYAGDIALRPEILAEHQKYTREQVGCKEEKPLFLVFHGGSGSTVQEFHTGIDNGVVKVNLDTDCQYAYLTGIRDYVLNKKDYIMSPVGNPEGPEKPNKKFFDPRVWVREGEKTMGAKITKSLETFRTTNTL

[2] = target: T2, GFP-tagged FBA1 (Saccharomyces cerevisiae) (UniProt P14540); assay: co-immunoprecipitation, Nb coupled to NHS-agarose beads, lysate of the yeast strain expressing the GFP-tagged target, SDS-PAGE
T2 sequence (looked up): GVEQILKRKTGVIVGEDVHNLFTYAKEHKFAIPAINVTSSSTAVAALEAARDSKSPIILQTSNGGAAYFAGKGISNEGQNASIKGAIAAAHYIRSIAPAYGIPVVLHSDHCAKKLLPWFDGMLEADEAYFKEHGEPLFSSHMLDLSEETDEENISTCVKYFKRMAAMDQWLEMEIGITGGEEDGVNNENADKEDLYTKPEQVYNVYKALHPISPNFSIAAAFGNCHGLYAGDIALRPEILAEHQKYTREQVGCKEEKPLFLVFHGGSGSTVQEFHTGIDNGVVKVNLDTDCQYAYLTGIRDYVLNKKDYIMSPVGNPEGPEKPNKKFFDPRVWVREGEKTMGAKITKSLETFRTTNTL

[3] = target: T2, GFP-tagged FBA1 (Saccharomyces cerevisiae); assay: co-immunoprecipitation, Nb coupled to NHS-agarose beads, lysate of the yeast strain expressing the GFP-tagged target, Western blot anti-GFP

- binding [1]: binds
- binding [2]: binds
- binding [3]: binds
B1: CA17443 (VHH)
VHH: QVQLVESGGGSVQPGGSLRLSCAASGNILRIYSMGWSRQAPGKQRELVASITRAGSTRYADSVKGRFTISRDSTNNMVYLQMNSLEPEDTAVYFCNANPVYDGSAGYWGQGTQVTVSS
